No constants are given. Whether binding was seen depends on the method and setting. For some assays here: In cells and extracts the contact can be indirect. For some assays here: Binding can be weak; no strength is given.
Legend:
[1] = target: cGAS-FLAG (cyclic GMP-AMP synthase, FLAG-tagged) (not stated (human or mouse cDNA cloned)) (UniProt Q8C6L5); assay: co-IP; WCLs of HEK293T transfected with TRIM56-V5 and cGAS truncation mutants, or cGAS-FLAG and TRIM56 truncation mutants; immunoprecipitation and immunoblotting with the indicated antibodies
[2] = target: MBP-cGAS C-terminal region (a.a. 161–522) (mouse); assay: pull-down; both purified

The chains behind the UniProt entries cited, without tags or fusion partners.
UniProt Q8C6L5: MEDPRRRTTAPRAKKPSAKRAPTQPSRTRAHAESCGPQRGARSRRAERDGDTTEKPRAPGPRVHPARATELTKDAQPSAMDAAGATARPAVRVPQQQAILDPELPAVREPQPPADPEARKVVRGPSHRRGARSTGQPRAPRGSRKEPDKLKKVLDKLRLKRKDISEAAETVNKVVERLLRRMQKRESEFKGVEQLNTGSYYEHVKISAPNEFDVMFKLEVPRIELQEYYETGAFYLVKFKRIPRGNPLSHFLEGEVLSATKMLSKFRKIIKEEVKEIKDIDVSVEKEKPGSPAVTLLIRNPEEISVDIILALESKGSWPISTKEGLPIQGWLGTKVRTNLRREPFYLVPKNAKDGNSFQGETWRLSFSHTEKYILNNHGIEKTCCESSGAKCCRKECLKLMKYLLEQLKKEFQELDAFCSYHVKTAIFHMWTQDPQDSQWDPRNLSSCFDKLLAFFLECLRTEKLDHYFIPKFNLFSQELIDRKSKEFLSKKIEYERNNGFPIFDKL

## TRIM56 C-terminus domain (308–531) (from UniProt Q80VI1) (domain or fragment)
[1]
  binding: binds

B1: TRIM56 purified from HEK293T cells (protein, UniProt Q80VI1 1-734)
chain: MNSKVSSPTLLEALSSDFLACKICLEQLHTPKTLPCLHTYCQDCLAQLDIGGQVRCPECREIVPVPAEGVAAFKTNFFVNGLLDLVKARAPGDVHSGKPTCALCPLVGGKSSGGPATARCLDCADDLCQACADGHRCSRQTHKHRVVDLVGYRAGWYDEEARERQASQCPQHPGEALCFLCQPCSQLLCKDCRLGPHIDHPCLPLAEAVRSRKPGLEELLAGVDSNLVELEATRVAEKEALALLREQAASVGTQVEEAAERILKSLLAQKQEVLGQLRALVEAAEEATRERLTKIERQEQVAKAAAAFARRVLSLGLEAEILSLEGAITQRLRQLQDAPWTSGPTRCVLPQLELHPGLEDKNCHLLRLIFEEPKQSPKDSGKGGAGTQGGDEAQGQGDDRTKIGKQGGAQPLTPKEGKDQNPQEDDGVFIERGNRPNKKKKCKGRGKSVSREPSPILRPNLEGSGLLPRPVFSWSFPTRMPGDKRSPRITGLCPYGPQEILVADEQNRVLKRFSLNGDYKGTVQVPEGCSPCSVAALQNAVAFSANAKLYLVSPDGEIQWRRSLSLTQSSHAVAAMPCGDRVAVSVAGHVEVYKKDGSLATRFIPGGKASRGQRALVFLTTSPQGNFVGSDWQQNSVVFCDGLGQVIWEYKGPGLHGCQPGSVSVDKKGYIFLTLREVNKVVILDPKGSLLGDFLTAYHGLEKPRVTTMVDGKYLVVSLSNGTIHVFRVRFPDS
[2]
  binding: no binding

— article PMC5807518
